Results are given in words; binding and its absence hold for the method and conditions named. Binding seen in cells or lysates may run through a third protein. Some binding calls cover weakened binding; strength is not graded here.
What was measured:
[1] = molecular target: EGFP-mDia2 ΔN (33-1171 aa) (UniProt Q9Z207); assay: co-IP; lysate of HEK 293T cells co-transfected with EGFP-mDia2 (FL or ΔN) and mCherry-importin β; GFP antibody and protein G Sepharose beads, 2 h at 4°C; RIPA buffer (50 mM Tris-HCl, 150 mM NaCl, 10 mM EDTA, 1% Triton X-100, pH 8.0); immunoblot with anti-GFP and anti-importin β
[2] = molecular target: EGFP-fused full-length mDia2 (Diaphanous-related formin-3) (UniProt Q9Z207); assay: as above

Chains of the proteins cited; added tags and fusions are not shown. Lines headed by an entry give the natural chain unless they say otherwise; changes in a name come on top. Residues count along the entry.
UniProt Q9Z207: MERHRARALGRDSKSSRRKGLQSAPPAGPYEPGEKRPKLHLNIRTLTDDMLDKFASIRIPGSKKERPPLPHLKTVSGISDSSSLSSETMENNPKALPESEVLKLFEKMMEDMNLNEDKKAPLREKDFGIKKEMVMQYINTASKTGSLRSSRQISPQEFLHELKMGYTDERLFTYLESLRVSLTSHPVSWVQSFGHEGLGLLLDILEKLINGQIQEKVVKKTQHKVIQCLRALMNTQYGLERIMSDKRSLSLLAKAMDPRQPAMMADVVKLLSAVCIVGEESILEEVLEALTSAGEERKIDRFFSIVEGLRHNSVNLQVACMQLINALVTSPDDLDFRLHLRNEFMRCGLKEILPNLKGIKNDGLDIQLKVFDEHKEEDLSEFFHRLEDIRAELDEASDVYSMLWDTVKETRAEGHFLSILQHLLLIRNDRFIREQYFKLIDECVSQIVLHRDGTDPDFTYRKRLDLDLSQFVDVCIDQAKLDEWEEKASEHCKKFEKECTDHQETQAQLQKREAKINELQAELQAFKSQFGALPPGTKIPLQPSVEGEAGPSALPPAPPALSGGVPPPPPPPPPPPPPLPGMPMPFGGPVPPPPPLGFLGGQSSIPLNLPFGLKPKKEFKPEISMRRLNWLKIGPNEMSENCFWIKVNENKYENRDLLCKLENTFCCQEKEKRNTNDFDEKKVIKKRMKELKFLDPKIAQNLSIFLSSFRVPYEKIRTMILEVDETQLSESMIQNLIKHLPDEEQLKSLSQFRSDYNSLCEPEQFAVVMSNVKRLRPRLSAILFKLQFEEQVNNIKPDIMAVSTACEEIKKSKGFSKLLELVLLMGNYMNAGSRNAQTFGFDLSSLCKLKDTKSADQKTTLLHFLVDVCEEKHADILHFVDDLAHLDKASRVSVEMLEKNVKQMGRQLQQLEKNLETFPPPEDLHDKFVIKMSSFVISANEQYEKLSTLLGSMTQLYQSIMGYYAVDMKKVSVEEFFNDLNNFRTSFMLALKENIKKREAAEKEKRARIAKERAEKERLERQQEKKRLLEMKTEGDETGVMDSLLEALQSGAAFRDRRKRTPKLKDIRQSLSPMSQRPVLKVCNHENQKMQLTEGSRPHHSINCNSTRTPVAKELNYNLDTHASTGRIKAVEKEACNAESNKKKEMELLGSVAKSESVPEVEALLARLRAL
EGFP-mDia2 ΔN (33-1171 aa): residues 33-1171 of Q9Z207
UniProt Q14974: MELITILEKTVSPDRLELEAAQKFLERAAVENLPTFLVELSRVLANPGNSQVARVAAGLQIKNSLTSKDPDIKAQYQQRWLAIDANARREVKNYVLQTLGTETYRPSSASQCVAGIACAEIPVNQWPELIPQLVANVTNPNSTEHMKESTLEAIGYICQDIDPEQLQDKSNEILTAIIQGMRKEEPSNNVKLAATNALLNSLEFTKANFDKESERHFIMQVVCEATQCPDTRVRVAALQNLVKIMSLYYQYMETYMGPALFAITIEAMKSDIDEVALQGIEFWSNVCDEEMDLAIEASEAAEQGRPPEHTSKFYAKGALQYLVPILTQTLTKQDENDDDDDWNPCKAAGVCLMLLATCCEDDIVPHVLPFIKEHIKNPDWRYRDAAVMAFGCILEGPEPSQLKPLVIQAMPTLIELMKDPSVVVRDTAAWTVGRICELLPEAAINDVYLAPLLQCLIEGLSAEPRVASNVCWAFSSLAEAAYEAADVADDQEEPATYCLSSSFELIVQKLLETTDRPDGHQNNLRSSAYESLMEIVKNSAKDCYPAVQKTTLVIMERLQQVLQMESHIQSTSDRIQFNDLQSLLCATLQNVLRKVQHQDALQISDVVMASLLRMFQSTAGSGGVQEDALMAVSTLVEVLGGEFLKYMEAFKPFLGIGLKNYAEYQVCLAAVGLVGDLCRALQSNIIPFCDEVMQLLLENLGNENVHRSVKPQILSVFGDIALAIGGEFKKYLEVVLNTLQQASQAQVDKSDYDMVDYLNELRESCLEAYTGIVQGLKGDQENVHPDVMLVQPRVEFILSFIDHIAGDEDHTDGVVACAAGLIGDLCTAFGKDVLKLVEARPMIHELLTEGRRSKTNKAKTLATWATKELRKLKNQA

Row | Substance | binding [1] | binding [2]
1 | endogenous importin β (from UniProt Q14974 1-876) | binds | binds
2 | mCherry-importin β (from UniProt Q14974 1-876) | binds | binds
